Measured values from patent publication US10160773B2, “Method for inducing cytotoxicity in cancer cells” (King Fahd University of Petroleum and Minerals, priority 2016, dated 2018).

Key:
[1] = Interaction with L-tyrosine by cyclic voltammetry; settings: 320 μM L-tyrosine, 0.1 mM complex; peak at 0.654 V in absence of gold compounds
[2] = Interaction with glutathione by cyclic voltammetry; settings: for peak of the complex after first spike of glutathione: 20 μM glutathione into 0.1 mM complex; for effect of subsequent glutathione spikes on peak currents of the complex: 0.1 mM complex, glutathione 20-100 μM

Row | Compound | L-tyrosine peak potential in the presence of complex [1] | peak of the complex after first spike of glutathione [2] | effect of subsequent glutathione spikes on peak currents of the complex [2]
1 | NC(c1cccc2ccccc12)C(N)c1cccc2ccccc12.O.O.[Au+3].[Cl-].[Cl-].[Cl-] (stereo not drawn) [Complex 1, [Au(npen)Cl2]Cl.2H2O] | +0.712 V | +0.942 V | systematic decrease in the registered peak currents
2 | [Au(npen)2]Cl3 [Complex 2] | +0.672 V | +0.955 V | systematic decrease in the registered peak currents
